{"source": "PubChem BioAssay AID504744, Drosophila RNAi Screening Center, 2011", "screen": "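Uncover factors, including feedback loops, that control dAkt activation in fly cells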 (primary screen)", "cells": "Drosophila Kc167 cells", "reagent": "long dsRNA against Drosophila genes, 250 ng dsRNA per well of a 384-well plate", "timing": "3 days of knock-down, then overnight serum-free starvation before stimulation", "conditions": "bovine insulin at 387 nM for 10 minutes after 12 h without serum", "measurement": "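In-cell antibody fluorescence for phospho-dAkt in each well over DNA-dye signal, with log2 residuals expressed as z-scores adjusted for cell count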", "hit rule": "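Under insulin, a gene counts as a hit if the average z-score of two replicates lies above 2.5 or below -2.5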", "note": "In all, the deposit lists about 23,000 reagents; this is an unselected part of those that have a named target and a result. Of all reagents, 98 (0.43%) got an active call. 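Only hit calls are given; the phospho-dAkt signals, z-scores and hit direction were not deposited.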 Names joined by + are all predicted targets of the reagent."}
The first 7 records, ahead of the listing:
{"predicted target": "CG3308", "amplicon": "DRSC15474", "activity call": "inactive"}
{"predicted target": "CG16749", "amplicon": "DRSC15146", "activity call": "inactive"}
{"predicted target": "Osi20", "amplicon": "DRSC12568", "activity call": "inactive"}
{"predicted target": "CG32809", "amplicon": "DRSC18507", "activity call": "inactive"}
{"predicted target": "CG32809", "amplicon": "DRSC18562", "activity call": "inactive"}
{"predicted target": "CG32809", "amplicon": "DRSC18592", "activity call": "inactive"}
{"predicted target": "CG11723", "amplicon": "DRSC00324", "activity call": "inactive"}

Main list, from the first entry:
{"predicted target": "CG3308", "amplicon": "DRSC15474", "activity call": "inactive"}
{"predicted target": "CG16749", "amplicon": "DRSC15146", "activity call": "inactive"}
{"predicted target": "Osi20", "amplicon": "DRSC12568", "activity call": "inactive"}
{"predicted target": "CG32809", "amplicon": "DRSC18507", "activity call": "inactive"}
{"predicted target": "CG32809", "amplicon": "DRSC18562", "activity call": "inactive"}
{"predicted target": "CG32809", "amplicon": "DRSC18592", "activity call": "inactive"}
{"predicted target": "CG11723", "amplicon": "DRSC00324", "activity call": "inactive"}
{"predicted target": "CG30389", "amplicon": "DRSC04077", "activity call": "inactive"}
{"predicted target": "CG30389", "amplicon": "DRSC04452", "activity call": "inactive"}
{"predicted target": "CG33281", "amplicon": "DRSC00421", "activity call": "inactive"}
{"predicted target": "fkh", "amplicon": "DRSC16949", "activity call": "inactive"}
{"predicted target": "Cpr49Af", "amplicon": "DRSC07202", "activity call": "inactive"}
{"predicted target": "CG15878", "amplicon": "DRSC08486", "activity call": "inactive"}
{"predicted target": "Rph", "amplicon": "DRSC17790", "activity call": "inactive"}
{"predicted target": "hkb", "amplicon": "DRSC12377", "activity call": "inactive"}
{"predicted target": "CG18746", "amplicon": "DRSC15383", "activity call": "inactive"}
{"predicted target": "msl-2", "amplicon": "DRSC00829", "activity call": "inactive"}
{"predicted target": "Orct2", "amplicon": "DRSC14613", "activity call": "inactive"}
{"predicted target": "CG30087", "amplicon": "DRSC21677", "activity call": "inactive"}
{"predicted target": "CG12301", "amplicon": "DRSC09875", "activity call": "inactive"}
{"predicted target": "Gr8a", "amplicon": "DRSC18043", "activity call": "inactive"}
{"predicted target": "RpS14a", "amplicon": "DRSC18710", "activity call": "inactive"}
{"predicted target": "Mocs1", "amplicon": "DRSC11225", "activity call": "inactive"}
{"predicted target": "eIF2D", "amplicon": "DRSC13916", "activity call": "inactive"}
{"predicted target": "CG12672", "amplicon": "DRSC19482", "activity call": "inactive"}
{"predicted target": "ND-18", "amplicon": "DRSC19441", "activity call": "inactive"}
{"predicted target": "CG14427", "amplicon": "DRSC17921", "activity call": "inactive"}
{"predicted target": "CG13054", "amplicon": "DRSC09935", "activity call": "inactive"}
{"predicted target": "row", "amplicon": "DRSC07076", "activity call": "inactive"}
{"predicted target": "row", "amplicon": "DRSC07077", "activity call": "inactive"}
{"predicted target": "CG42304 + Snup", "amplicon": "DRSC08276", "activity call": "inactive"}
{"predicted target": "CG42304 + Snup", "amplicon": "DRSC08277", "activity call": "inactive"}
{"predicted target": "CG42304 + Snup", "amplicon": "DRSC22781", "activity call": "inactive"}
{"predicted target": "ArfGAP1", "amplicon": "DRSC11173", "activity call": "inactive"}
{"predicted target": "CG15337", "amplicon": "DRSC18020", "activity call": "inactive"}
{"predicted target": "CG15337", "amplicon": "DRSC22778", "activity call": "inactive"}
{"predicted target": "Nckx30C", "amplicon": "DRSC02686", "activity call": "inactive"}
{"predicted target": "Nckx30C", "amplicon": "DRSC02687", "activity call": "inactive"}
{"predicted target": "Nckx30C", "amplicon": "DRSC02688", "activity call": "inactive"}
{"predicted target": "Nckx30C", "amplicon": "DRSC02689", "activity call": "inactive"}
{"predicted target": "PolD2", "amplicon": "DRSC08147", "activity call": "inactive"}
{"predicted target": "CG31869", "amplicon": "DRSC02582", "activity call": "inactive"}
{"predicted target": "CG31869", "amplicon": "DRSC02674", "activity call": "inactive"}
{"predicted target": "CG3734", "amplicon": "DRSC15509", "activity call": "inactive"}
{"predicted target": "Polr3C", "amplicon": "DRSC14490", "activity call": "active"}
{"predicted target": "CG2100", "amplicon": "DRSC12303", "activity call": "inactive"}
{"predicted target": "CG5421", "amplicon": "DRSC02858", "activity call": "inactive"}
{"predicted target": "CSN7", "amplicon": "DRSC06807", "activity call": "inactive"}
{"predicted target": "CSN7", "amplicon": "DRSC06808", "activity call": "inactive"}
{"predicted target": "Dera", "amplicon": "DRSC07207", "activity call": "inactive"}
{"predicted target": "Dera", "amplicon": "DRSC21336", "activity call": "inactive"}
{"predicted target": "PK1-R", "amplicon": "DRSC16577", "activity call": "inactive"}
{"predicted target": "CG34011", "amplicon": "DRSC00888", "activity call": "inactive"}
{"predicted target": "usp", "amplicon": "DRSC18847", "activity call": "inactive"}
{"predicted target": "CG10660", "amplicon": "DRSC09769", "activity call": "inactive"}
{"predicted target": "comm2", "amplicon": "DRSC09881", "activity call": "inactive"}
{"predicted target": "comm2", "amplicon": "DRSC10877", "activity call": "inactive"}
